Results reported in article PMC8445599.
Substitutions are numbered along the chain they refer to. These are yes or no findings as the source states them, for the method shown. Binding seen in cells or lysates may run through a third protein. Some binding calls cover weakened binding; strength is not graded here. For part of these data: Tags and fused reporters may be left off the sequences shown.

Protein sequences, listed by entry. Tags and fused reporters are not part of them. Residues count along the entry.
UniProt P02545, residues 1-646: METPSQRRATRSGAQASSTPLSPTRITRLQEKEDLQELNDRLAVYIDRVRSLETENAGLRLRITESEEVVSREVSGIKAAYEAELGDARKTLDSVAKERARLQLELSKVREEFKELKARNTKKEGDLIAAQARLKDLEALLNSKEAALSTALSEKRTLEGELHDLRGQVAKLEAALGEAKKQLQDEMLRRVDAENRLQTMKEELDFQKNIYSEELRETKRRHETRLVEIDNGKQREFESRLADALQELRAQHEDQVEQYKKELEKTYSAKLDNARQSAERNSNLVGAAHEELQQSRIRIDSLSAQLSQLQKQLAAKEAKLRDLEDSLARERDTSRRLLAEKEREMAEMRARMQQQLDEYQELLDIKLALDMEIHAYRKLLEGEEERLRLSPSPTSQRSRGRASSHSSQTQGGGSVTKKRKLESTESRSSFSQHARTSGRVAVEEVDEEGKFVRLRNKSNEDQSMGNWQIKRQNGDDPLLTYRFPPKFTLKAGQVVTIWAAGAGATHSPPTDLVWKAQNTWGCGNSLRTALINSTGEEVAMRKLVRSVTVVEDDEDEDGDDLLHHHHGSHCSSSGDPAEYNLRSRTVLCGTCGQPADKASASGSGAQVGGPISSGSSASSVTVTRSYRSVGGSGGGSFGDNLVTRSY
UniProt P36873: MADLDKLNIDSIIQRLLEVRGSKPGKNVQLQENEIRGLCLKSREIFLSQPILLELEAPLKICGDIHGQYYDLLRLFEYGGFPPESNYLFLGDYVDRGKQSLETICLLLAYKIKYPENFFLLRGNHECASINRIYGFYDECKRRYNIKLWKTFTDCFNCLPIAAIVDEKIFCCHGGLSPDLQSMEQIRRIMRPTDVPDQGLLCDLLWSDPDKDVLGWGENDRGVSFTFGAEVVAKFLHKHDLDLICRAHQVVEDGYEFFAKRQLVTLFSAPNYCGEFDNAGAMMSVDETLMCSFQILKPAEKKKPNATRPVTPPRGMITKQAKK

How the values were obtained:
HA–lamin A (WT) (human) = HA–lamin A (WT) (human) (UniProt P02545); assay: co-IP; 293FT cells co-transfected with HA–lamin A, FLAG–RepoMan–Ubc9 and CFP or CFP–SUMO-2 (Ubc9 fusion-directed SUMOylation); IP with anti-FLAG or anti-HA magnetic beads, 30 min 4°C; lysis buffer 20 mM HEPES pH 7.4, 150 mM NaCl, 0.5% NP-40, 20 mM N-ethylmaleimide; washes with 100 mM KCl added
[1] = molecular target: T1, FLAG–RepoMan(K762R) (human) (UniProt Q69YH5); assay: co-IP; 293FT cells co-transfected with FLAG–RepoMan and Myc–PP1γ; IP with anti-FLAG antibody, blot with anti-FLAG and anti-Myc
T1 sequence: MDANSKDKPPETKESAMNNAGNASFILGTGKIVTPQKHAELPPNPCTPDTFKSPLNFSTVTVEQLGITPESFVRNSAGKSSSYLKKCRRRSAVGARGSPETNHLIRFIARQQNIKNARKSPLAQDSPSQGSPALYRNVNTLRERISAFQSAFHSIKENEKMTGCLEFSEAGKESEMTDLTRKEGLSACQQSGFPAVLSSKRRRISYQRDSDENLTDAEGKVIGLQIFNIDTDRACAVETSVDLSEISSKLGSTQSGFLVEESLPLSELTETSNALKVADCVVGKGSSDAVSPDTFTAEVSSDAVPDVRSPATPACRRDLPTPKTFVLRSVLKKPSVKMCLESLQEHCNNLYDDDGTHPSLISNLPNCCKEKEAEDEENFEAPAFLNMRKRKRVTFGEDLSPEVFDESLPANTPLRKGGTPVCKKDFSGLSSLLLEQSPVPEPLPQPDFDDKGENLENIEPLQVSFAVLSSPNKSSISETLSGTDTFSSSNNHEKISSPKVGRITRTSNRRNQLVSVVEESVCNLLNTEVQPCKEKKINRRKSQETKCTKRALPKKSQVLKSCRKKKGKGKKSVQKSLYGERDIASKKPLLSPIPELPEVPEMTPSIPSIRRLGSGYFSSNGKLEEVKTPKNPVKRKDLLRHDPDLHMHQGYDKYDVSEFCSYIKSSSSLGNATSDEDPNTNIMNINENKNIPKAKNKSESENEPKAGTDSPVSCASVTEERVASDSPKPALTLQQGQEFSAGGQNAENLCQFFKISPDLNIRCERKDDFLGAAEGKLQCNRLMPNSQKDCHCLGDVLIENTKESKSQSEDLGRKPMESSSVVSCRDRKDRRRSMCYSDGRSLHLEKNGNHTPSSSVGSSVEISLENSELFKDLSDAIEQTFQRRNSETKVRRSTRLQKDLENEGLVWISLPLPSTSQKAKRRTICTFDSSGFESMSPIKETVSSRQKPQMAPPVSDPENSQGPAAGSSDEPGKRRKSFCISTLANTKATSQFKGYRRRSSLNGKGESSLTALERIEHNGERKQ

[2] = molecular target: T2, FLAG–RepoMan (WT) (human) (UniProt Q69YH5); assay: as above
T2 sequence: T1 sequence with R762K

[3] = molecular target: T3, RepoMan (endogenous) (human (endogenous in HeLa)) (UniProt Q69YH5); assay: co-IP; endogenous proteins; asynchronous HeLa cells; IP with anti-lamin A/C or anti-RepoMan antibody, western blot
T3 sequence: T1 sequence with R762K

[4] = molecular target: T3, RepoMan (endogenous) (human (endogenous in HeLa)); assay: co-IP; endogenous proteins; HeLa cells arrested at the G1/S boundary (1.5 mM hydroxyurea, 16 h); IP with anti-lamin A/C or anti-RepoMan antibody, western blot
[5] = molecular target: T3, RepoMan (endogenous) (human (endogenous in HeLa)); assay: co-IP; endogenous proteins; HeLa cells arrested in M phase (1 µg/ml nocodazole, 16 h); IP with anti-lamin A/C or anti-RepoMan antibody, western blot

“FLAG–RepoMan(WT)–Ubc9, non-SUMOylated (from UniProt Q69YH5 2-1023; P63279 2-158)” was tested, and the binding (HA–lamin A (WT) (human)) was “binds”.
For “Myc–PP1γ (from UniProt P36873 1-323) (enzyme)”, the binding [1] was “binds” and the binding [2] was “binds”.
With “lamin A/C (endogenous) (from UniProt P02545 1-646)” the binding [3] was “binds weakly”, the binding [4] was “binds weakly” and the binding [5] was “binds”.
